Results: patent US20060198859A1, “Compositions with a depot effect for controlling microorganisms” (Goldschmidt GmbH, priority 2004, published 2006)

System: enzymes expressed by the skin microbes
Test: Cleavability of polyol esters by skin microbes (p-nitrophenol, UV absorbance)
Type: biochemical
Conditions: underarm swab, acetate buffer pH 5.6

Question: With `CCCCCCCCCC(=O)OCC(O)CCOc1ccc([N+](=O)[O-])cc1` (stereo not shown) [2-hydroxy-4-p-nitrophenoxybutyl decanoate] as the molecule, how does the “cleavage of the ester by the enzymes expressed by the skin microbes” value read?
Answer: cleaved in 1.5 h
